These results are taken from PMC11665687.

The chains behind the UniProt entries cited, without tags or fusion partners.
UniProt O14686: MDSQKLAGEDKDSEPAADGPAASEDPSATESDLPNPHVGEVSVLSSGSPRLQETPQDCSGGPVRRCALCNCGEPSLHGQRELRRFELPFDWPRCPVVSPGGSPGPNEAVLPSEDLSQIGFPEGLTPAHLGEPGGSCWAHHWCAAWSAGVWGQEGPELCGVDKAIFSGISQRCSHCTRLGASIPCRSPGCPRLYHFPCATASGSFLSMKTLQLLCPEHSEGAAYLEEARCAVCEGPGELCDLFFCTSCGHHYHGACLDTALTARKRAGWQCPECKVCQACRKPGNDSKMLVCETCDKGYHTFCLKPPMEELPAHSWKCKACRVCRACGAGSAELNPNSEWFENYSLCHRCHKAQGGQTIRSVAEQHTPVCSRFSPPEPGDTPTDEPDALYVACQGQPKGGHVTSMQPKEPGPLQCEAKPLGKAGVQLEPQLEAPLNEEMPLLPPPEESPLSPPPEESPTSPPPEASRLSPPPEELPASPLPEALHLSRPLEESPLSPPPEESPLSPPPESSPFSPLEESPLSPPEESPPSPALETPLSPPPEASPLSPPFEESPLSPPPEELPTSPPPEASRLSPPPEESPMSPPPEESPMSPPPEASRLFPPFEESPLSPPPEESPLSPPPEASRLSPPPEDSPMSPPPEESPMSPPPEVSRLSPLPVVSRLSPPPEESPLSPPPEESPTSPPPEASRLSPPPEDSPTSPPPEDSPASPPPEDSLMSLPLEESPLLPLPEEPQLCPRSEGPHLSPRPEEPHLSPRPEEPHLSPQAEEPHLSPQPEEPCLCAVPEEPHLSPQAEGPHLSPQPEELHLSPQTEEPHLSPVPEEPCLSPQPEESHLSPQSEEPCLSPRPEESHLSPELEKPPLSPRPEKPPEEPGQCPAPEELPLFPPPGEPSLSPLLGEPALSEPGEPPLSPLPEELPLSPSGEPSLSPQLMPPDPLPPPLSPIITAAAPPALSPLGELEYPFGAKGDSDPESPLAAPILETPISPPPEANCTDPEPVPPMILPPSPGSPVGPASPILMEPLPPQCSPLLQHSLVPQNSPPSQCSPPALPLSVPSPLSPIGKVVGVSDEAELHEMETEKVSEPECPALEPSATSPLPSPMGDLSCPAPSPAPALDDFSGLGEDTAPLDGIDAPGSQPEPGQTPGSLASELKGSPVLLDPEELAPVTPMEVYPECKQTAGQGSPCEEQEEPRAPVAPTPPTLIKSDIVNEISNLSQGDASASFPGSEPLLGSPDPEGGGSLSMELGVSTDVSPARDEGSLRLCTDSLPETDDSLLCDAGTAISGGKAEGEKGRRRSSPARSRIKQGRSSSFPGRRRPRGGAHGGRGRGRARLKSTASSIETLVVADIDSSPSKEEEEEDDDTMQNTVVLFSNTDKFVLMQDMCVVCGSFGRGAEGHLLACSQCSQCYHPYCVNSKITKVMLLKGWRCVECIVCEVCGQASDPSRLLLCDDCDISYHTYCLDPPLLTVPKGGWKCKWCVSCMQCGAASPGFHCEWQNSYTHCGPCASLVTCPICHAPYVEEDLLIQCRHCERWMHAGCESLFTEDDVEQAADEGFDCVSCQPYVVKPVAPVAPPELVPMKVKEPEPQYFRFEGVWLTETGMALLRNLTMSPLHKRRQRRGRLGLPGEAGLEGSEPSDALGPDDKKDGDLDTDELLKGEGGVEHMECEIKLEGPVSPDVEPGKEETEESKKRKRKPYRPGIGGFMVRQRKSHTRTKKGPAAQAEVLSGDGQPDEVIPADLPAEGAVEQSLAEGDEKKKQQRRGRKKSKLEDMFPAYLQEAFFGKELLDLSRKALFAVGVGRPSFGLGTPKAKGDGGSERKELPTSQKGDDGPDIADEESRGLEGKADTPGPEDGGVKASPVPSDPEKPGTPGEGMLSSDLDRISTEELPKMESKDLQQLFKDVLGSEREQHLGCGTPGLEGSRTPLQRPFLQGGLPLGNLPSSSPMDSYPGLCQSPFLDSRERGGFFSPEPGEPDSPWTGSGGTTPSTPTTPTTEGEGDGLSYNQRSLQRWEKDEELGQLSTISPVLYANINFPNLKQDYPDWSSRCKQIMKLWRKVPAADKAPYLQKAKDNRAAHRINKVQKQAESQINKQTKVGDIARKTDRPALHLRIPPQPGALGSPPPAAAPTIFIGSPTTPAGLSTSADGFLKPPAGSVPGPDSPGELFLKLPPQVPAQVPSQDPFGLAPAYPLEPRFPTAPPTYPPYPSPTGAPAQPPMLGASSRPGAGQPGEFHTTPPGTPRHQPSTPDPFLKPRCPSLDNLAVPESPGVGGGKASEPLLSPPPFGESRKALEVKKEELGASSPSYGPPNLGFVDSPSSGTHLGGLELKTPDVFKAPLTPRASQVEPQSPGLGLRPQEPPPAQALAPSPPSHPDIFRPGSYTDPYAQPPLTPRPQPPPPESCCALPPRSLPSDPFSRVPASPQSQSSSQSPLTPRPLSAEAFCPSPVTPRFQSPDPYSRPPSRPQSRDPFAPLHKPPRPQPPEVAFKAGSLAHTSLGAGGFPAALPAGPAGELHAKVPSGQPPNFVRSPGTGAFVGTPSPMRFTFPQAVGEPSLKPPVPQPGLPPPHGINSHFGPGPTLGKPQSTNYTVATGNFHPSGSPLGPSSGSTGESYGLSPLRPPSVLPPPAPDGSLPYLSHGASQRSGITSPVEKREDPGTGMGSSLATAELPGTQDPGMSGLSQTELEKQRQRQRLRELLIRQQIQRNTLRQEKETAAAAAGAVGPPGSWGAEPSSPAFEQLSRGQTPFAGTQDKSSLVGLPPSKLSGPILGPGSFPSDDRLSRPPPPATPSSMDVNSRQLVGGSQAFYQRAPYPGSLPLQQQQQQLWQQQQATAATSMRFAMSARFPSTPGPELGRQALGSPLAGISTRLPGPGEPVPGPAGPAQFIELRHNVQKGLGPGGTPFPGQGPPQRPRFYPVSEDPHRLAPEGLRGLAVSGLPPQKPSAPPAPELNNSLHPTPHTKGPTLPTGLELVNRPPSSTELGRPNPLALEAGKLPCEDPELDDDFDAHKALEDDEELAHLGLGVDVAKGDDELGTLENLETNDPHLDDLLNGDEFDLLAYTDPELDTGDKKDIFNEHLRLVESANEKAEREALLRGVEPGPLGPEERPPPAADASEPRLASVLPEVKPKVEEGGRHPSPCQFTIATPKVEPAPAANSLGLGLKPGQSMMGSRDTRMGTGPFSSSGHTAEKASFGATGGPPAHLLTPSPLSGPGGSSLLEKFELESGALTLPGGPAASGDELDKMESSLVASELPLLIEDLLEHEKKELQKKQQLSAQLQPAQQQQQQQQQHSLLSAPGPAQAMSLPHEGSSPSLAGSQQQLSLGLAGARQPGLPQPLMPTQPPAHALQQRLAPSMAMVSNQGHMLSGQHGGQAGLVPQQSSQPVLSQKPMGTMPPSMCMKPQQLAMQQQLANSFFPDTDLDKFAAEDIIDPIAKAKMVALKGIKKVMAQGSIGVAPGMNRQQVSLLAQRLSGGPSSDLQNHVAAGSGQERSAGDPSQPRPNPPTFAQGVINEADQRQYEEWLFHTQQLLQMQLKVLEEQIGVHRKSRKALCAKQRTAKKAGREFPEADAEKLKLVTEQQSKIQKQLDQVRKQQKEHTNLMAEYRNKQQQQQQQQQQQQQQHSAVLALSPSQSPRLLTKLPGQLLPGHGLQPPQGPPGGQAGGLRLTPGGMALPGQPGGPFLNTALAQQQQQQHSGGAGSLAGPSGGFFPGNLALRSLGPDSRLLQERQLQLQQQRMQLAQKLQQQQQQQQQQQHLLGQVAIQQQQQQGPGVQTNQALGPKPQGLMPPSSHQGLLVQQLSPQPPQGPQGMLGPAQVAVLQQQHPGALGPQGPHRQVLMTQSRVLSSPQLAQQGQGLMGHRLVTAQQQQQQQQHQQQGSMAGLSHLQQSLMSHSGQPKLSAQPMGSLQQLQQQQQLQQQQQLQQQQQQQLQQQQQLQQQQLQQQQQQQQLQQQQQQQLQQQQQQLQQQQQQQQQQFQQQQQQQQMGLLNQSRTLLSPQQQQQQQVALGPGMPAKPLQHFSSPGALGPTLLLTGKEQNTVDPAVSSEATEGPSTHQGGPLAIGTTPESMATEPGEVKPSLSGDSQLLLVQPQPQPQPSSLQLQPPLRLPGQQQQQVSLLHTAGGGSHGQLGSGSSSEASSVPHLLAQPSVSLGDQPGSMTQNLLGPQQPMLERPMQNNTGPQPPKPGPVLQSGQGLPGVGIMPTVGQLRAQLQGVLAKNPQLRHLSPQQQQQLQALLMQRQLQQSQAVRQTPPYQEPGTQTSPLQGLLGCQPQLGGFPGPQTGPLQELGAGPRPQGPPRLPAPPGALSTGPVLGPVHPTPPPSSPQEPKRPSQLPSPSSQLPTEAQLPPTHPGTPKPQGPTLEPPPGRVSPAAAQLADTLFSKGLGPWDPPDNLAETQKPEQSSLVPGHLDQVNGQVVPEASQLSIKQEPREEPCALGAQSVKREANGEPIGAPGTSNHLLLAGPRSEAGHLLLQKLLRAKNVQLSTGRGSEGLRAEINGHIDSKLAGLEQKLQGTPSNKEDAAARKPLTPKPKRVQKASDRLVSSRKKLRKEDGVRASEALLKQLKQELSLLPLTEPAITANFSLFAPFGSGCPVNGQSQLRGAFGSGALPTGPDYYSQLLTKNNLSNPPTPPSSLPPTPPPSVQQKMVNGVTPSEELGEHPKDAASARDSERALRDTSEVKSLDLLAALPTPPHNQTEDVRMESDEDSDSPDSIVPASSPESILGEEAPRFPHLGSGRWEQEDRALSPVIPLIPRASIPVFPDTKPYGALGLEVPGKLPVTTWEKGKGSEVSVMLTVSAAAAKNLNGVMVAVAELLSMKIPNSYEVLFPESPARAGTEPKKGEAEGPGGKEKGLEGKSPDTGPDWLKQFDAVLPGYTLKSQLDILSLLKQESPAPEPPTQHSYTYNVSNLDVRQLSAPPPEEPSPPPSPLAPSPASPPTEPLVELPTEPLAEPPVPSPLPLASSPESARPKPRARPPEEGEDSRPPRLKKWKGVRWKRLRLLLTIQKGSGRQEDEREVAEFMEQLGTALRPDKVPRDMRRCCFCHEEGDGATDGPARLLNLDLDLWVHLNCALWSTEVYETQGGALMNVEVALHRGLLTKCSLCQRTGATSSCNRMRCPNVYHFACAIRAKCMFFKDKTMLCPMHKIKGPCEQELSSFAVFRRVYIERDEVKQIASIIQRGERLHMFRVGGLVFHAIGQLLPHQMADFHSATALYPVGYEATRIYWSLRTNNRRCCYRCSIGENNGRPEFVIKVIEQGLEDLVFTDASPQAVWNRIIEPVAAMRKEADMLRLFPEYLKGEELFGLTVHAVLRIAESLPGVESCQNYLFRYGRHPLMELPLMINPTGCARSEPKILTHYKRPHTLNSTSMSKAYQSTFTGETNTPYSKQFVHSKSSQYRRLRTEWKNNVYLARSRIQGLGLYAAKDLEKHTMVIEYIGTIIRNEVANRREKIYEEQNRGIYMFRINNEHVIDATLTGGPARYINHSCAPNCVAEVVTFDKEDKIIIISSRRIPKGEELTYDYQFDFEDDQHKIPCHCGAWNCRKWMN
UniProt Q04207: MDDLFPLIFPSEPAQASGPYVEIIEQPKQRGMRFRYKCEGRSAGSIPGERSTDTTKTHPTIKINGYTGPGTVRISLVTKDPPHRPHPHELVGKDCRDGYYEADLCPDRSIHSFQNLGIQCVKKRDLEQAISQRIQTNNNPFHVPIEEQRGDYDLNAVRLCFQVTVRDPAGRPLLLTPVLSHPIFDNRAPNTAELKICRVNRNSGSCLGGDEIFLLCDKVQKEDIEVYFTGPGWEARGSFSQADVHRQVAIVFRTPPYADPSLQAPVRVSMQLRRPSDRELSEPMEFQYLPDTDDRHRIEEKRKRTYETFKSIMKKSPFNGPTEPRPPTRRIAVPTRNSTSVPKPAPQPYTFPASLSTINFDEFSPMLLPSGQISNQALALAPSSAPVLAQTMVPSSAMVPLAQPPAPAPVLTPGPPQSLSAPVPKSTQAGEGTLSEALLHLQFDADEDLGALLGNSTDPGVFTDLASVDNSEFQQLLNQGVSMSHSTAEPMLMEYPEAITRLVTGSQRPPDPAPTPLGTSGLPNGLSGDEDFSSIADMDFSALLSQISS

This test addresses MLL4 (histone H3 lysine 4 methyltransferase) (human (endogenous in HepG2)) (UniProt O14686). As to the kind of experiment: co-IP; HepG2 cells transfected with Flag-p65, with or without LPS (100 ng/ml, 2 h); lysis buffer with 150 mM NaCl, 0.5% NP-40; IP with home-made anti-MLL4 antibody and protein A-agarose; blot with anti-p65.

Results are given in words; binding and its absence hold for the method and conditions named. Binding seen in cells or lysates may run through a third protein. Some results given as binding are weak or reduced against the parent protein; the word gives no strength.

Turning to “Flag-tagged mouse p65 (from UniProt Q04207 1-549)”, the binding entry is “binds”.
